From PubChem BioAssay AID1508600 (Functional Genomics Laboratory (NCATS/FGL), 2020)
Out of some 53,000 sequences screened, about 3,700 (7%) were called active.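 How the source made its calls: active means gene knockdowns whose robust z-score for IL-1 alpha signal is at least 2 or at most -2, so actives lie on both sides; inactive means the rest.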 This is one part of the list.

Test: Components of the Cytosolic LPS Sensing Pathway: Gene Identification via Genome-wide siRNA Screen;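 further: robust z of the log signal after scaling to non-targeting control siRNA wells of the plate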
Conditions: RAW264.7 macrophages, IL-1a HTRF, actives lie on both sides, screened at 100 nM (by protocol), cells primed 5 h with Pam3CSK4 first
Outline: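 RAW264.7; siRNA 100 nM final, RNAiMAX, 48h 37 degrees C; Pam3CSK4 5 h; LipidA + TransIT-TKO 24 h; IL-1a HTRF; CellTiter-Glo viability; robust z vs negative-control median.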
In the case of CGACAUCAAGGAUCGAAUATT against Pkn2, the z-score is reported as inactive: 0.144.
With GCUUUGACCACAUUCAGAGTT against Ncmap the z-score was inactive: -0.0337.
In the case of GGGUUUUGUUAAUACAUACTT against Rhbdd2, the z-score is reported as inactive: -1.92.
For GGAGUGCAAUUCCUUUCUATT against Ptger3, the z-score was inactive: -1.37.
With GGCCUGAUUACCUUGGAAATT against Papss1 the z-score was inactive: 0.439.
In the case of GGCUCAUAUUUCCAUCAGATT against Tchhl1, the z-score is reported as inactive: -1.13.
For CCUGCUAAACCUGGACCAUTT against Hic1, the z-score was inactive: 1.61.
For GGCUGCUGAAGCAAAUAAGTT against Ankrd17, the z-score was active: 3.38.
For GGCUGGAUUAUUUUUUCUUTT against Usp4, the z-score was inactive: 0.921.
With GGACUUAAACUUCAUGACATT against Csf2ra the z-score was inactive: 0.209.
With GGAACAGGAAGUUAAAUACTT against Neu4 the z-score was inactive: 0.482.
With CGGGCAAGCUCCAAAUGAGTT against Cfap298 the z-score was inactive: 1.31.
In the case of GGGAUUUCAAGGAAAUAAGTT against Col28a1, the z-score is reported as inactive: -0.771.
For GGCGAGUUUAUAGAAGAAATT against Phf19, the z-score was inactive: 1.35.
With CGGGAUGACUACAAUCUGGTT against Ssbp3 the z-score was active: -2.17.
For GGCAUAGUGAAUUUAGUCUTT against Iqub, the z-score was inactive: 0.526.
With GGAACUGUCACAACUGCUATT against Acat3 the z-score was active: 3.22.
For CCCUCAGAUUCAAAAAGUGTT against Krt1, the z-score was inactive: 0.233.
With GGUUUAUAUUCUUUGUGGATT against Kcnj1 the z-score was inactive: -0.214.
In the case of GGAAUUGUCAGGUCUUGAATT against Tmem174, the z-score is reported as inactive: -0.311.
With GGCUGGCUUGCUUGUAAUATT against Fam166c the z-score was inactive: 0.311.
In the case of GGCCUUGUAAAUUAUGCAUTT against Klhl23, the z-score is reported as inactive: 0.61.
For GCGGCAUAAUGGAUAUGACTT against Ckmt1, the z-score was inactive: 0.134.
For GGAGAAGAGAUCCCUGAACTT against Neurod2, the z-score was inactive: -0.491.
In the case of GGCCGCUACCAGUUCAAUUTT against Hapln2, the z-score is reported as inactive: 0.879.
For GGCACUUUCCCUAUAUUGUTT against Col26a1, the z-score was inactive: -1.57.
For GCAUCUAUGAUGCAUUUGUTT against Tlr4, the z-score was inactive: -0.153.
With CCUAUUCAAUUCAGUUCUATT against Slc36a4 the z-score was inactive: 1.6.
In the case of UUCAUGUAGGUCUACUAUUTT against Olfr203, the z-score is reported as inactive: -0.104.
For GCACAAAGUCGACAAUGGATT against Csnk1e, the z-score was inactive: -0.568.
With GGUAUAAAGACCUUUUUUCTT against Bcl7a the z-score was inactive: -0.481.
For CCCAAUGCAAGACAUUAAGTT against Lrrc27, the z-score was inactive: -1.54.
With GGGAACAUAGAGUUGAUCCTT against Pdzk1ip1 the z-score was inactive: -1.27.
With GGUGUCUACGAGUGCUUCGTT against Gpbar1 the z-score was inactive: 0.081.
In the case of GCUAAGUCGGAUGAUAGAATT against Ttc16, the z-score is reported as inactive: -0.742.
In the case of CCAAGGUUGAGAACAGAUGTT against Rom1, the z-score is reported as inactive: 0.403.
With GGAGAAAAAAGCAGUGGUUTT against Tk2 the z-score was inactive: -0.0643.
With GGGAUAUUCGAUCCUCUAGTT against Slc22a4 the z-score was inactive: -0.272.
In the case of GCUGAUUUGUGGGAUCUGUTT against Trim13, the z-score is reported as inactive: -0.057.
For GGAAAGAUGGUUUUUGUUUTT against Smug1, the z-score was inactive: 0.847.
For GGACAUUUCCAAUAACAUUTT against Nifk, the z-score was inactive: 1.04.
For GGUCGUGGUGAAAACUAAGTT against Nsg1, the z-score was inactive: 0.537.
In the case of GCAACCGAAGAAUGUUUACTT against Ttbk1, the z-score is reported as inactive: -0.18.
For GCUUUCUUACCAAGAGUCATT against Vsig8, the z-score was active: -2.89.
In the case of GGUAGUACCACUAACCAAATT against Nrl, the z-score is reported as inactive: 0.257.
With GGUCUCAGAAGACCUAGAUTT against Mylpf the z-score was inactive: -1.91.
For GGUUCUCUGUGUGAUAGCCTT against Ms4a10, the z-score was inactive: -0.164.
In the case of GGUUUUCCUGUUCAAUUCUTT against Olfr586, the z-score is reported as active: 2.4.
With GGAAGAACUGAUUGAAGAGTT against Sptlc1 the z-score was inactive: -0.789.
With CCAUCUUGGAGAUCCUGAUTT against Kat5 the z-score was active: -2.46.
With GCACUUGCCAGGUACUAUGTT against Cnga1 the z-score was inactive: 0.391.
In the case of GCCGAGUGGCAAAAGAUGUTT against Ybey, the z-score is reported as inactive: -0.353.
For GCUGAUUUCUCAAACAUGATT against Serpinb10, the z-score was inactive: -0.489.
